For some assays here: At least one compound was matched to its structure with a doubt left. Some of these results come from one statement about several compounds together.
How the values were obtained:
[1] = test system: SVMP activity of E. ocellatus, E. carinatus, B. asper and B. arietans venoms; experiment: In vitro kinetic fluorogenic SVMP assay (Study 2); type: biochemical; conditions: marimastat 150 nM-150 μM; batimastat […] and 150 nM only
Excerpt: FIG. 10. […] (A) SVMP activities of the five viper venoms quantified by fluorogenic assay. The data presented represent mean measurements and SEMs of area under the curves of fluorescent arbitrary units taken from three independent experimental runs. EOC, E. ocellatus; ECAR, E. carinatus; BAS, Bothrops asper, BAR, Bitis arietans; DRUS, Daboia russelii. (B) The effectiveness of metal chelators and peptidomimetic hydroxamate inhibitors at inhibiting the SVMP activity of the various viper venoms. Drug concentrations from 150 μM to 150 nM (highest to lowest dose tested) are presented. The data is expressed as percentage of the venom-only sample (100%, top dashed line). The negative control is presented as an interval (bottom dashed lines) and represents the values recorded in the PBS-only samples (expressed as percentage of venom activity), where the highest and the lowest values in each set of independent experiments are depicted. […]
The SVMP assay measuring metalloproteinase activity and the plasma assay measuring coagulation in the presence or absence of venoms and inhibitors were performed as previously described^28. The SVMP assay kinetically measured cleavage of a quenched fluorogenic substrate (ES010, R&D Biosystems) by venom in the presence or absence of inhibitors. […]

[2] = test system: D. russelii venom coagulation-related activities; experiment: Plasma clotting assay, whole D. russelii venom; type: biochemical, Daboia russelii; conditions: 150 μM to 150 nM
Description: FIG. 12. […] The data is plotted separately for ‘very fast coagulation’, ‘medium coagulation’ and ‘anticoagulation’, based on the slopes of the 0-5 min and 0-20 min readings, and the single endpoint reading at 180 min. The tested inhibitor concentrations are presented alongside the chromatograms. […] The data is presented as the maximal clotting velocity at each concentration, and represents means of triplicate independent repeats with SEMs, where each technical repeat represents the mean of n≥2 technical replicates. The venom-only control (top dashed lines) and the negative control (bottom dashed lines) are presented as intervals and represent the average±SEM observed for the venom-only and PBS controls across all datasets and replicates.
We used a previously developed plasma clotting assay^35 to measure venom-induced coagulation. Briefly, 100 ng of each venom was incubated at 37° C. for 30 min in the presence or absence of inhibitors (150 μM to 150 nM final concentrations). […] The samples were pipetted in triplicate into 384-well plates, and absorbance monitored at 595 nm for 2 h at 25° C. on an Omega FLUOstar instrument. We calculated the maximum clotting velocity of each of the curves as per clot waveform analysis^67, by calculating the maximum of the first derivative. […]

[3] = test system: procoagulant activities of viper venoms (E. ocellatus, E. carinatus, B. asper, D. russelii); experiment: Plasma clotting assay, neutralization of procoagulant venom activity; type: biochemical; conditions: range across all venoms, 100 ng venom, bovine plasma; read-out: IC50, inhibition of procoagulant activity
Excerpt: FIG. 11. SVMP-inhibitors neutralize the in vitro procoagulant activities of several geographically distinct viper venoms. […] The data presented represents the maximum clotting velocity, calculated as the maximum of the first derivative of each clotting curve, from triplicate independent repeat experiments with SEMs, where each technical repeat represents the mean of n≥2 technical replicates. EOC, E. ocellatus; ECAR, E. carinatus; BAS, Bothrops asper, BAR, Bitis arietans; DRUS, Daboia russelii. (B) Neutralization of procoagulant venom activity by four SVMP-inhibitors across four drug concentrations (150 μM to 150 nM). The data is expressed as the maximum clotting velocity at each dose. […]
Since SVMPs are key toxins associated with causing coagulopathy, we next investigated whether the same peptidomimetic and metal chelating inhibitors could also neutralize the procoagulant bioactivities of viper venoms. To do so, we used a validated kinetic absorbance-based assay monitoring plasma clotting^35 in the presence or absence of venoms and inhibitors (FIG. 11).
We used a previously developed plasma clotting assay^35 to measure venom-induced coagulation. […] The samples were pipetted in triplicate into 384-well plates, and absorbance monitored at 595 nm for 2 h at 25° C. on an Omega FLUOstar instrument. […]

[4] = test system: Echis ocellatus venom metalloproteinase activity; experiment: In vitro snake venom metalloproteinase assay (quenched fluorogenic substrate), drug screen; type: biochemical; conditions: 10 μM drug, 1 μg E. ocellatus venom, endpoint read 45 min; DMSO 100%, 10 μM marimastat control 0%
Description: FIG. 1. Inhibition of Echis ocellatus venom metalloproteinase activity by known matrix metalloproteinase inhibitors (MMPi) and rationally selected drugs based on their target site interactions. One microgram of whole venom per reaction was incubated with 10 μM of drug (dissolved in DMSO). Predicted metalloproteinase inhibitors were based on descriptors from a MedChemExpress commercial library and the literature. […] The percentage metalloproteinase activity was calculated from an endpoint read taken 45 minutes after substrate addition. The phospholipase inhibitor varespladib was included as a non-metalloproteinase inhibiting drug control.
The snake venom metalloproteinase activity in the presence of inhibitors or vehicle control (DMSO), was measured using a quenched fluorogenic substrate (ES010, R&D Biosystems). […] The substrate was suspended in reaction buffer (150 mM NaCl, 50 mM Tris-HCl pH 7.5). Reactions consisted of 1 μg/reaction of venom (1 μg in 15 μl PBS) co-incubated with 0.91 μl of 1 mM of inhibitor, both added using the VIAFLO 384 (Integra). […] Strong hits were determined as those with less than 20% metalloproteinase activity of the venom and mediocre hits between 20 and 50%. […]

SMILES | neutralization of SVMP bioactivity [1] | effect on procoagulant activity of whole D. russelii venom [2] | IC50 [3] [nM] | percentage of venom metalloproteinase activity [4] [%]
CNC(=O)[C@H](Cc1ccccc1)NC(=O)[C@H](CC(C)C)[C@H](CSc1cccs1)C(=O)NO [batimastat] | equivalent efficacy to marimastat | revealed clear venom anticoagulant effects | < 150 | 
CNC(=O)[C@@H](NC(=O)[C@H](CC(C)C)[C@H](O)C(=O)NO)C(C)(C)C [marimastat] |  |  |  | ≤ 20
O=S(=O)(O)CC(S)CS (centres unmarked) [DMPS, 2,3-dimercapto-1-propanesulfonic acid] |  |  |  | < 20

From patent publication US12285408B2, “Methods and compositions for the treatment of snake bite” (priority 2021, dated 2025)
